Laboratory results published in patent publication US20070190528A1.
Numbering of substitutions follows the chain as printed. These are yes or no findings as the source states them, for the method shown. For some of these results: In cells and extracts the contact can be indirect. Some entries that bind do so weakly or less than the wild type. For some of these results: Where a sequence is shown, tags or fusion partners need not be part of it. One block for each molecule: values may come before it.

Sequences of proteins named here, by UniProt entry; tags and fusion partners are left off.
UniProt P09382: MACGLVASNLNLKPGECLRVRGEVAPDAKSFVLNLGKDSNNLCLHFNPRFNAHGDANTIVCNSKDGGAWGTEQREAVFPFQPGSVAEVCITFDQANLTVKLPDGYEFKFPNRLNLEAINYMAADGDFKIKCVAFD

How the values were obtained:
[1] = molecular target: T1, Recombinant LTA (pET29 system, E. coli) (UniProt P01374); assay: summary of the immunoprecipitation experiments
T1 sequence (looked up): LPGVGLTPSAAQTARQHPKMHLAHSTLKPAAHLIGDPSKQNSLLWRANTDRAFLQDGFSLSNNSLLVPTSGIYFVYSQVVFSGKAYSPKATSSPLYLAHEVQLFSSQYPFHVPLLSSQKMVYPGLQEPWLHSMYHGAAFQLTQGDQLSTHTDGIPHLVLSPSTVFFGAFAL

[2] = molecular target: T1, Recombinant LTA (pET29 system, E. coli); assay: pull-down of purified proteins with anti-LTA antibody sepharose, Western blot with anti-T7
[3] = molecular target: T2, LTA (lymphotoxin-alpha) as used for E. coli two-hybrid screening (UniProt P01374); assay: E. coli two-hybrid screening
T2 sequence (looked up): T1 sequence (looked up)

[4] = molecular target: T1, Recombinant LTA (pET29 system, E. coli); assay: pull-down of purified proteins with anti-LTA antibody sepharose, Western blot with anti-T7 tag
[5] = molecular target: T3, FLAG-tagged LTA Asn26 (pFLAG-CMV-5a vector, expressed in COS7 cells) (UniProt P01374); assay: coimmunoprecipitation from COS7 lysate with anti-LTA antibody
T3 sequence (looked up): T1 sequence (looked up) with T26N

[6] = molecular target: T3, FLAG-tagged LTA Asn26 (pFLAG-CMV-5a vector, expressed in COS7 cells); assay: coimmunoprecipitation from COS7 lysate with anti-LTA antibody and protein A sepharose, Western blot with anti-Myc (lane 5)

Molecule: galectin-1 (clone from the two-hybrid library derived from blood vessel smooth muscle cells) (from UniProt P09382 1-135)
- binding [3]: binds

B1: Recombinant galectin-2 (full-length, pET 28, E. coli; detected by anti-T7 tag antibody) (protein, UniProt P05162 1-132, looked up, not shown: small tags and cut ends)
chain: MTGELEVKNMDMKPGSTLKITGSIADGTDGFVINLGQGTDKLNLHFNPRFSESTIVCNSLDGSNWGQEQREDHLCFSPGSEVKFTVTFESDKFKVKLPDGHELTFPNRLGHSHLSYLSVRGGFNMSSFKLKE
- binding [1]: binds
- binding [4]: binds

Now from value to molecule:

- binding [1]: binds
- binding [2]: binds
Molecule: Recombinant galectin-1 (T7-tagged at the N-terminus) (from UniProt P09382 1-135)

- binding [5]: binds
- binding [6]: binds
B2: Myc-tagged galectin-2 (pCMV-Myc vector, expressed in COS7 cells) (protein, UniProt P05162 1-132, looked up, not shown: small tags and cut ends)
chain: B1 chain
